For 42 sequences, binding signal results are on record in paper PMC7819943, “Rice protein-binding microarrays: a tool to detect cis-acting elements near promoter regions in rice”.

By UniProt entry, the sequences of proteins in these tests, tags left out.
UniProt Q0JBA9, entry or part of it: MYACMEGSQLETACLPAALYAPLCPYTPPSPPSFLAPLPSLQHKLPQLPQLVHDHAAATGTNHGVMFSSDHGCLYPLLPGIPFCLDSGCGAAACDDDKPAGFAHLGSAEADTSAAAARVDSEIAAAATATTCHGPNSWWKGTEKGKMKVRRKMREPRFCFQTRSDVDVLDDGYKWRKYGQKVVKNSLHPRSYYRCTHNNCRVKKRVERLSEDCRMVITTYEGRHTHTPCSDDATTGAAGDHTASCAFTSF

Some of the results follow.

The target in the experiment is OsWRKY34 (Oryza sativa, UniProt Q0JBA9 1-250). In words: protein-binding microarray (RPBM); PBS, 2% BSA, 51.3 ng/ul salmon testes DNA, 50 uM zinc acetate, 200 nM TF, 25 C, 1 h; high values mean tight binding. The settings on record: protein: recombinant; tags: N-terminal polyhistidine and DsRed monomer fusion (pET32a); label: CyDye5-dUTP incorporated in the synthesized complementary strand; 3' TTTTT single-stranded linker to array surface; dsDNA, one strand shown. An outline of the steps: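 Per-feature fluorescence intensity (arbitrary units), read on an Axon 4000B scanner, is the binding signal. Transcription factors carrying an N-terminal polyhistidine tag and DsRed fusion were expressed in E. coli BL21-CodonPlus and purified on Ni–NTA. A custom Agilent array, made double-stranded by primer extension with Cy5-dUTP and blocked with 2% BSA, was incubated with 200 nM protein in PBS, 2% BSA, salmon testes DNA and 50 µM zinc acetate at 25 °C for 1 h and then washed.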
For “TTATTACTTTACCTTTCACATCCGTCCATCCTCACTATCACGGAGTCACCTAGTGCAG”, the binding signal was 11400 fluorescence intensity (a.u.).
As for “TTATGTATATACTCTGATGATCACATGATACACATGATATCGGAGTCACCTAGTGCAG”, the figure is 8460 fluorescence intensity (a.u.).
Next, “TCCTCCGTCTCTTCGTCGACGCCCGCCGCAACCTGCCGCCCGGAGTCACCTAGTGCAG”: 8070 fluorescence intensity (a.u.); “CCTTTCCGATTACGTGTTGGACCTTGACCCTAGGCCATATCGGAGTCACCTAGTGCAG”: 8110 fluorescence intensity (a.u.); “ATGAGCCTCTGGGTCAACGCGGCGACCTGCGCGCGCTCCACGGAGTCACCTAGTGCAG”: 8130 fluorescence intensity (a.u.).
As for “AAGTGCATTTTGTCTACATTCTTGCATTCACCATTTCACACGGAGTCACCTAGTGCAG”, the figure is 8340 fluorescence intensity (a.u.); as for “GACTAGTCCCTGTTTCCCAACACCATGCTTGTCTGAGTTACGGAGTCACCTAGTGCAG”, 9300 fluorescence intensity (a.u.); as for “TTGAGCCGTTGTTACCCATATCTTGTCTCTCTTCTTTCTCCGGAGTCACCTAGTGCAG”, 9300 fluorescence intensity (a.u.).
“AGGCATCTAACTATTTACCACTTTTAGATTTGACATTTACCGGAGTCACCTAGTGCAG”: the binding signal is 9330 fluorescence intensity (a.u.).
With “AGGGATAAAGATTTCTGGTTTTGGGGTTTCGGGATGTCATCGGAGTCACCTAGTGCAG”, the binding signal is 12100 fluorescence intensity (a.u.).
Consider “GCTGAGGTTTTTGCTCTTTGACTTTTTGTGGTTGCTCATACGGAGTCACCTAGTGCAG”, for which the binding signal is 13600 fluorescence intensity (a.u.).
Next, “ATTTTCAATCTTAAATTTAAAGTTGATTTTGGGGTTTTTTCGGAGTCACCTAGTGCAG”: 9040 fluorescence intensity (a.u.).
Next, “GACACACAACCAAGGTCCAGTTTAGTTACCATCCTATGTTCGGAGTCACCTAGTGCAG”: 9240 fluorescence intensity (a.u.); “AAGGTCGCCGTCTCCATCTCGTCTCCCTCGCCGCCGCCTCCGGAGTCACCTAGTGCAG”: 10900 fluorescence intensity (a.u.); “GAGTTGGTAGTTGGCGGTTTCGGATAAGGATCCGATATTTCGGAGTCACCTAGTGCAG”: 9610 fluorescence intensity (a.u.).
As for “CCAAGCTCCACTATCCGGCTGCTGTCATTGGCTTCTCGGCCGGAGTCACCTAGTGCAG”, the binding signal was 11800 fluorescence intensity (a.u.).
As for “GCCGGAGGCCGGTTCCACTTGCACCAAACCGTACCAAACCCGGAGTCACCTAGTGCAG”, the figure is 8080 fluorescence intensity (a.u.); as for “GTGATGAATTATTTTTGCCTTTCTTTTCTTTCTCCCTATCCGGAGTCACCTAGTGCAG”, 9710 fluorescence intensity (a.u.).
Next, “GTGACTTTTGCCAACTAATTCTCCCGTACGCCCGAGATCCCGGAGTCACCTAGTGCAG”: 11700 fluorescence intensity (a.u.); “TCTAAATTGTATTTCTATATGGACTCTGTTTTTCTTTTTCCGGAGTCACCTAGTGCAG”: 8520 fluorescence intensity (a.u.); “GTGTCATTATCCCGTGTGTACTCCACTTGTGCCGAATATGCGGAGTCACCTAGTGCAG”: 8270 fluorescence intensity (a.u.).
As for “TTAGTTGAAGATCTCTTCGTTCTCAGTGTGTTCTTTTGGGCGGAGTCACCTAGTGCAG”, the figure is 11200 fluorescence intensity (a.u.); as for “CTTCAAACTTTTAATTTTTCCGTCACATCGAACTTTTCTACGGAGTCACCTAGTGCAG”, 9760 fluorescence intensity (a.u.); as for “CGTCGTTTAGTCTCCTCCCTATATATATTATTGGTATTGTCGGAGTCACCTAGTGCAG”, 8040 fluorescence intensity (a.u.).
Turning to “TGTGGCTGGATTTGTACTTGGATTGGATCTTCTCTTCAGTCGGAGTCACCTAGTGCAG”, the binding signal was 11800 fluorescence intensity (a.u.).
Consider “CCTCCCGCCGCGCCTAAAACCTCGACACCTCACCCACCTCCGGAGTCACCTAGTGCAG”, for which the binding signal is 9520 fluorescence intensity (a.u.).
Next, “TCTGCGCCTCAAATTTCCTTTCCTATGCCTGCAGCCTGTACGGAGTCACCTAGTGCAG”: 8340 fluorescence intensity (a.u.); “TGGGAGGAGGGAGGGAGGAGGAGGGCGGAGATAGGTGGTGCGGAGTCACCTAGTGCAG”: 11400 fluorescence intensity (a.u.); “AGTAGTACGTGCGGTTATGGGTTGGGCTGCTCGTTGGCCACGGAGTCACCTAGTGCAG”: 13700 fluorescence intensity (a.u.).
Next, “TTCGAGCGCCCTTCTCGTTCGGTTCTTGCCTCTCCACCGCCGGAGTCACCTAGTGCAG”: 9090 fluorescence intensity (a.u.).
Regarding “ATTGGATCGATTTGTTCGTTGTTTTCATGGCGTTAATCTCCGGAGTCACCTAGTGCAG”, the binding signal was 10200 fluorescence intensity (a.u.).
Next, “TGTCCGCCACGCTCTCGCCATCTGCCTGTACCACTAATCTCGGAGTCACCTAGTGCAG”: 22500 fluorescence intensity (a.u.).
In the case of “GCCGCTCTCATCTCTCTCGCTCTCTCCTGCCCGCCGCCTGCGGAGTCACCTAGTGCAG”, the binding signal is 11700 fluorescence intensity (a.u.).
As for “AATGTTTTTATTCGGGGTGTTATCCTTCTACCCATTAGGACGGAGTCACCTAGTGCAG”, the figure is 8250 fluorescence intensity (a.u.).
Next, “ACTTCTCCTCGCCTCATCGCGACCTCTCCATCTCGCTCTCCGGAGTCACCTAGTGCAG”: 8860 fluorescence intensity (a.u.); “TCATTATGGTGTTTCTTAATTGCTTTTTTCTTTTTATTATCGGAGTCACCTAGTGCAG”: 8300 fluorescence intensity (a.u.); “CACTCTCTCTCTCTCTCTCTCTCTCTCTCTCTCTCTCCTACGGAGTCACCTAGTGCAG”: 9390 fluorescence intensity (a.u.).
In the case of “ATGTACGCCAACTTAATCTTCATCTTCATCAGTTTCGCCTCGGAGTCACCTAGTGCAG”, the binding signal was 10600 fluorescence intensity (a.u.).
As for “TCATTGCTTTACACCATTGTAATCCTTTGTCATTTACTTTCGGAGTCACCTAGTGCAG”, the figure is 10400 fluorescence intensity (a.u.); as for “TGCTAGCCTTTTCATATTGAACTTCCACCTCTCCATGCATCGGAGTCACCTAGTGCAG”, 10100 fluorescence intensity (a.u.); as for “GCCAAGACGCCCAAAGCACACACTCTCTCTCGCTGTCTTTCGGAGTCACCTAGTGCAG”, 8490 fluorescence intensity (a.u.).
On to “AACCGCCGACGACGCGCCCACCTCCTCTTCGCCGCCTCCGCGGAGTCACCTAGTGCAG”, for which the binding signal was 9790 fluorescence intensity (a.u.).
